Laboratory results reported in PubChem BioAssay AID330 (DTP/NCI, 2004).
The list shows only some results of the screen, not a fair sample: it is rich in T/C values a quarter to a half above the control, in often repeated tests (any T/C) and in doses without a T/C. Further doses and runs are listed elsewhere. T/C: endpoint of the treated group in % of that of the vehicle group. Some entries give survivors of the animals treated and no T/C: the source files T/C as zero there, which appears to mark a toxic dose or a test without result, not a measured value. Some doses without a T/C left all or most animals alive at the check, yet need not have been tolerated: the source hardly ever lists a survival T/C far under the control, and the zero likely stands for such cases as well. Counts of survivors are from the toxicity check (mostly the fifth day) where no day follows; animals may have died later. Schedules are NCI's codes, read here as Q, the interval in days (D) or hours (H), X, the number of doses. Some entries hold several experiments; the results are listed from low to high. For survival time, the PubChem record calls one and a half times the control and up active, and a quarter to a half above the control has no call in these data; cut-offs in other NCI protocols can differ. Some T/C values carry the count of animals alive at the toxicity check (mostly the fifth day); without a count, all were alive then.

Tested on: P388 leukemia ip, CD2F1 mice, survival T/C
Experiment: NCI In Vivo Anticancer Drug Screen. Data for tumor model P388 Leukemia (intraperitoneal) in CD2F1 (CDF1) mice
Settings: T/C endpoint: median survival time, higher T/C = longer survival
[1] = dose: 240.0 mg/kg/injection, schedule: Q01DX005 (ip), vehicle: saline with Tween-80
[2] = dose: 100.0 mg/kg/injection, schedule: Q01DX009 (ip), vehicle: Klucel (hydroxypropylcellulose) (HPC)
[3] = dose: 200.0 mg/kg/injection, schedule: Q01DX009 (ip), vehicle: Klucel (hydroxypropylcellulose) (HPC)
[4] = dose: 50.0 mg/kg/injection, schedule: Q01DX009 (ip), vehicle: Klucel (hydroxypropylcellulose) (HPC)
[5] = dose: 50.0 mg/kg/injection, schedule: Q01DX009 (ip), vehicle: saline
[6] = dose: 200.0 mg/kg/injection, schedule: Q01DX005 (ip), vehicle: saline with Tween-80
[7] = dose: 3.12 mg/kg/injection, schedule: Q01DX005 (ip), vehicle: Klucel (hydroxypropylcellulose) (HPC)
[8] = dose: 12.5 mg/kg/injection, schedule: Q01DX005 (ip), vehicle: Klucel (hydroxypropylcellulose) (HPC)
[9] = dose: 50.0 mg/kg/injection, schedule: Q01DX005 (ip), vehicle: Klucel (hydroxypropylcellulose) (HPC)
[10] = dose: 400.0 mg/kg/injection, schedule: Q04DX003 (ip), vehicle: Klucel (hydroxypropylcellulose) (HPC)
[11] = dose: 100.0 mg/kg/injection, schedule: Q04DX003 (ip), vehicle: saline with Tween-80
[12] = dose: 100.0 mg/kg/injection, schedule: Q01DX009 (ip), vehicle: saline
[13] = dose: 200.0 mg/kg/injection, schedule: Q01DX009 (ip), vehicle: saline
[14] = dose: 120.0 mg/kg/injection, schedule: Q01DX005 (ip), vehicle: saline with Tween-80
[15] = dose: 200.0 mg/kg/injection, schedule: Q01DX009 (ip), vehicle: saline with Tween-80

**Q.** Which survivor count [1] does the source give for `OCC1OC(n2c(=S)[nH]c3ccccc32)C(O)C1O` (configuration not stated) here?
**A.** 0 of 6

**Q.** Which survivor count [2] does the source give for `O=[N+]([O-])c1ccc([O-])c([I+]c2ccccc2)c1` here?
**A.** 6 of 6

**Q.** What about the survivor count [3] of the same molecule?
**A.** 0 of 6

**Q.** What does the source list for `CCN(CC)CC(C)(O)CNc1cc(OC)cc2cccnc12` (configuration not stated)?
**A.** survivor count (dose: 100.0 mg/kg/injection, schedule: Q01DX005 (ip), vehicle: saline): 0 of 5; survivor count (dose: 200.0 mg/kg/injection, schedule: Q01DX005 (ip), vehicle: saline): 0 of 5

**Q.** For `CN(C)C(=S)S(=O)(=O)c1ccccc1`, which survivor count [4] is on record?
**A.** 3 of 6

**Q.** And the survivor count [2]?
**A.** 0 of 6

**Q.** What about the survivor count [3] of the same molecule?
**A.** 0 of 6

**Q.** For `COc1cccc2c1C(=O)c1c(O)c3c(c(O)c1C2=O)CC(O)(C(C)=O)CC3OC1CC(N/C(C)=C/C(C)=O)C(O)C(C)O1` (configuration not stated), which T/C (dose: 50.0 mg/kg/injection, schedule: Q04DX003 (ip), vehicle: distilled water + Tween-80) is on record?
**A.** 128 and 132 % of control

**Q.** What about the T/C (dose: 100.0 mg/kg/injection, schedule: Q04DX003 (ip), vehicle: distilled water + Tween-80) of the same molecule?
**A.** 144 % of control

**Q.** For `CC(=O)c1c(O)cc2c3c1OC(C)(C)C1CCC(C)(CC31)O2` (configuration not stated), which survivor count [5] is on record?
**A.** 5 of 6

**Q.** `N#CC1=C(C#N)C(=O)C(Cl)=C(Cl)C1=O` was tested. Which survivor count (dose: 25.0 mg/kg/injection, schedule: Q04DX003 (ip), vehicle: saline) did it give?
**A.** 3 of 6

**Q.** And the survivor count (dose: 50.0 mg/kg/injection, schedule: Q04DX002 (ip), vehicle: saline with Tween-80)?
**A.** 1 of 6

**Q.** And the survivor count (dose: 100.0 mg/kg/injection, schedule: Q04DX002 (ip), vehicle: saline with Tween-80)?
**A.** 0 of 6

**Q.** And the survivor count (dose: 200.0 mg/kg/injection, schedule: Q04DX002 (ip), vehicle: saline with Tween-80)?
**A.** 0 of 6

**Q.** What about the survivor count (dose: 400.0 mg/kg/injection, schedule: Q04DX002 (ip), vehicle: saline with Tween-80) of the same molecule?
**A.** 0 of 6

**Q.** What does the source list for `S=C(Nc1ccc(Br)c(Cl)c1)SCc1ccc2c(c1)OCO2`?
**A.** T/C [4]: 132 % of control; T/C [2]: 132 % of control [4 of 6 alive]; survivor count [3]: 0 of 6 and 2 of 6

**Q.** For `Cc1ccc(NCc2ccccn2)nc1`, which survivor count [6] is on record?
**A.** 0 of 6

**Q.** How did the survivor count [1] turn out when `COc1cc(C(c2cc3c(cc2OC(C)=O)OCO3)C(C(C)=O)C(C)=O)cc(OC)c1OC(C)=O` (configuration not stated) was run?
**A.** 6 of 6

**Q.** Which survivor count [7] does the source give for `Cc1c2c(cc3c4ccccc4n(C)c13)C(=O)OC2=O` here?
**A.** 6 of 6

**Q.** What about the survivor count [8] of the same molecule?
**A.** 5 of 5 and 6 of 6

**Q.** And the survivor count (dose: 25.0 mg/kg/injection, schedule: Q01DX005 (ip), vehicle: Klucel (hydroxypropylcellulose) (HPC))?
**A.** 5 of 5

**Q.** What about the survivor count [9] of the same molecule?
**A.** 5 of 5

**Q.** For `O=S(=O)(O)c1c(O)c2ccccc2c2nc3ccccc3nc12`, which survivor count (dose: 200.0 mg/kg/injection, schedule: Q01DX007 (ip), vehicle: saline) is on record?
**A.** 5 of 6

**Q.** `O=C1Nc2ccccc2C12Nc1ccccc1N2` was tested. Which survivor count (dose: 100.0 mg/kg/injection, schedule: Q04DX003 (ip), vehicle: Klucel (hydroxypropylcellulose) (HPC)) did it give?
**A.** 6 of 6

**Q.** And the survivor count [10]?
**A.** 6 of 6

**Q.** How did the T/C (dose: 12.5 mg/kg/injection, schedule: Q01DX009 (ip), vehicle: saline with Tween-80) turn out when `CC1CN1C(=O)c1cc(C(=O)N2CC2C)cc(C(=O)N2CC2C)c1` (configuration not stated) was run?
**A.** 127 % of control

**Q.** And the T/C (dose: 25.0 mg/kg/injection, schedule: Q01DX009 (ip), vehicle: saline with Tween-80)?
**A.** 127 % of control

**Q.** What about the T/C (dose: 25.0 mg/kg/injection, schedule: Q04DX003 (ip), vehicle: saline with Tween-80) of the same molecule?
**A.** 131 % of control

**Q.** And the T/C (dose: 50.0 mg/kg/injection, schedule: Q04DX003 (ip), vehicle: saline with Tween-80)?
**A.** 127 % of control

**Q.** And the T/C [11]?
**A.** 127 % of control

**Q.** Which survivor count [12] does the source give for `FC(F)(F)c1cccc(C2CNCCO2)c1` (configuration not stated) here?
**A.** 4 of 6

**Q.** What about the survivor count [13] of the same molecule?
**A.** 1 of 6

**Q.** For `CC1(c2ccccc2)Nc2ccccc2N(C(=O)c2ccccc2)C1c1ccccc1` (configuration not stated), which survivor count (dose: 240.0 mg/kg/injection, schedule: Q01DX005 (ip), vehicle: Klucel (hydroxypropylcellulose) (HPC)) is on record?
**A.** 6 of 6

**Q.** With `O=[N+]([O-])c1cccnc1C1OCCO1` as the molecule, how does the survivor count (dose: 200.0 mg/kg/injection, schedule: Q01DX009 (ip), vehicle: saline + Tween-80 + alcohol) read?
**A.** 6 of 6

**Q.** Which survivor count (dose: 60.0 mg/kg/injection, schedule: Q01DX005 (ip), vehicle: saline with Tween-80) does the source give for `CCOC(=O)CC(C(=O)OCC)S(=O)CP(=O)(OCC)OCC` (configuration not stated) here?
**A.** 0 of 6

**Q.** And the survivor count [14]?
**A.** 0 of 6

**Q.** What about the survivor count [1] of the same molecule?
**A.** 0 of 6

**Q.** With `CCCCCCOCC(=O)O` as the molecule, how does the survivor count [15] read?
**A.** 3 of 6

**Q.** `Cc1ccc(C(SCC(N)C(=O)O)(c2ccccc2)c2ccccc2)cc1` (configuration not stated) was tested. Which T/C (dose: 6.25 mg/kg/injection, schedule: Q01DX009 (ip), vehicle: saline with Tween-80) did it give?
**A.** 140 % of control

**Q.** What about the survivor count (dose: 50.0 mg/kg/injection, schedule: Q01DX009 (ip), vehicle: saline with Tween-80) of the same molecule?
**A.** 6 of 6

**Q.** And the survivor count (dose: 100.0 mg/kg/injection, schedule: Q01DX009 (ip), vehicle: saline with Tween-80)?
**A.** 6 of 6

**Q.** And the survivor count [15]?
**A.** 6 of 6

**Q.** With `COc1cc([C@@H]2c3cc4c(cc3C[C@@H]3COC(=O)C32)OCO4)cc(OC)c1O` (some centres not stated) as the molecule, how does the T/C (dose: 30.0 mg/kg/injection, schedule: Q01DX005 (ip), vehicle: saline with Tween-80) read?
**A.** 136 % of control

**Q.** And the T/C [14]?
**A.** 130 % of control

**Q.** What about the survivor count [14] of the same molecule?
**A.** 6 of 6

**Q.** And the survivor count (dose: 180.0 mg/kg/injection, schedule: Q01DX005 (ip), vehicle: saline with Tween-80)?
**A.** 6 of 6

**Q.** Which results are given for `C1CNC2NCCNC2N1` (configuration not stated)?
**A.** T/C [5]: 136 % of control; T/C [12]: 131 % of control [5 of 6 alive]; survivor count [13]: 4 of 6

**Q.** How did the T/C (dose: 50.0 mg/kg/injection, schedule: Q01DX009 (ip), vehicle: saline sonified) turn out when `COc1cc(NC(=O)CN(CCCl)CCCl)cc(OC)c1OC` was run?
**A.** 145 % of control

**Q.** And the T/C [11]?
**A.** 131 % of control

**Q.** And the survivor count [15]?
**A.** 1 of 6

**Q.** What about the T/C (dose: 200.0 mg/kg/injection, schedule: Q04DX003 (ip), vehicle: saline with Tween-80) of the same molecule?
**A.** 145 % of control [5 of 6 alive]

**Q.** And the T/C (dose: 300.0 mg/kg/injection, schedule: Q04DX003 (ip), vehicle: saline sonified)?
**A.** 125 % of control [5 of 6 alive]

**Q.** What about the survivor count (dose: 400.0 mg/kg/injection, schedule: Q04DX003 (ip), vehicle: saline with Tween-80) of the same molecule?
**A.** 6 of 6

**Q.** With `[Cl][Sn]([c]1cccc2ccccc12)[c]1cccc2ccccc12` as the molecule, how does the T/C [7] read?
**A.** 133 % of control

**Q.** What about the T/C (dose: 6.25 mg/kg/injection, schedule: Q01DX005 (ip), vehicle: Klucel (hydroxypropylcellulose) (HPC)) of the same molecule?
**A.** 145 % of control

**Q.** And the T/C [8]?
**A.** 139 % of control

**Q.** What about the survivor count [9] of the same molecule?
**A.** 0 of 6

**Q.** What about the survivor count (dose: 100.0 mg/kg/injection, schedule: Q01DX005 (ip), vehicle: Klucel (hydroxypropylcellulose) (HPC)) of the same molecule?
**A.** 0 of 6

**Q.** What about the survivor count (dose: 200.0 mg/kg/injection, schedule: Q01DX005 (ip), vehicle: Klucel (hydroxypropylcellulose) (HPC)) of the same molecule?
**A.** 0 of 6

**Q.** How did the survivor count [6] turn out when `C/C(=N\NC(=S)Nc1ccc(C(=O)O)cc1)c1ccc2ccccc2n1` was run?
**A.** 3 of 6

**Q.** For `COc1ccc2c(c1)[nH]c1c(/C=C/c3ccc([N+](=O)[O-])cc3)nccc12`, which survivor count (dose: 60.0 mg/kg/injection, schedule: Q01DX005 (ip), vehicle: Klucel (hydroxypropylcellulose) (HPC)) is on record?
**A.** 6 of 6

**Q.** What about the survivor count (dose: 120.0 mg/kg/injection, schedule: Q01DX005 (ip), vehicle: Klucel (hydroxypropylcellulose) (HPC)) of the same molecule?
**A.** 6 of 6

**Q.** Which survivor count [15] does the source give for `C1CSCCSCCCSCCSC1` here?
**A.** 6 of 6

**Q.** For `NC(=S)c1ccc(N)cc1`, which survivor count [10] is on record?
**A.** 2 of 6

**Q.** What does the source list for `CCC[CH2][Sn]([F])([F])[CH2]CCC`?
**A.** survivor count (dose: 100.0 mg/kg/injection, schedule: Q04DX003 (ip), vehicle: saline): 0 of 6; survivor count (dose: 200.0 mg/kg/injection, schedule: Q04DX003 (ip), vehicle: saline): 0 of 6; survivor count (dose: 400.0 mg/kg/injection, schedule: Q04DX003 (ip), vehicle: saline): 0 of 6
